# Assay results reported in patent US20240041733A1, “DENTAL CARE COMPOSITION AND METHOD OF PROMOTING CALCIFICATION IN LIVING BODY TISSUE” (KINJIRUSHI CO., LTD., priority 2020, published 2024).
# Some results were stated once for a whole list of compounds, not compound by compound.
# Tested on: Human odontoblast (HOB) cells
# Assay: Evaluation of calcification promoting action using human odontoblasts (Alizarin red and von Kossa staining)
# Type: cell-based
# Settings: 21 or 28 days
# Procedure: 1. Cultivation of Human Odontoblast (Human Odontoblast (HOB) Cells)
# HOB cells are seeded in a T75 flask and cultivated until confluency was achieved. A culture medium (hereinafter referred to as “regular medium”) was prepared by adding 10% of fetal bovine serum (FBS) (Life Technologies Ltd.; Product No. 10437-028), 1% of penicillin-streptomycin (Life Technologies Ltd.; Product No. 15140-122), 1% of amphotericin B (Sigma-Aldrich, Product No. A2942-100ML) to MEMα (Life Technologies Ltd.; Product No. 12561-049, 12561-056). Cultivation was performed under an environment with a temperature of 37° C. and 5% of CO2.
# Then the HOB Cells were seeded on an adherent cell cultivation plate (Sumitomo Bakelite Co., Ltd) such that the cell density per 1 well was 1.78 to 2.56×10^5 cells/mL, and cultivated under the same environment. As the adherent cell cultivation plate, plates having 6 to 96 wells were appropriately used.
# Four days later, each culture medium was changed from the regular medium to a calcification medium, or to a culture medium (hereinafter, referred to as “additive containing calcification medium”) prepared by adding additional components shown in the following Table 4 and Table 5 to the calcification medium so as to achieve the concentrations shown in Table 4 and Table 5. […]
row,SMILES,concentration at which particularly high calcification promoting action was observed
1,"CS(=O)(=O)CCCCCCN=C=S [6-MSFITC, 6-methylsulfonylhexyl isothiocyanate]",≥ 50 µM
2,"C[S+]([O-])CCCCCCCCN=C=S (centres unmarked) [8-MSITC, 8-methylsulfinyloctyl isothiocyanate]",≥ 50 µM
